In EP3502102A1, “STING INHIBITORS” (ECOLE POLYTECHNIQUE FEDERALE DE LAUSANNE (EPFL), priority 2017, dated 2019):
Changes are numbered by the printed parent chain. For at least one compound, name, drawing or mass did not settle the structure.

Assays:
MEFs from TREX1 KO mice = test: ISG expression (RT-qPCR) in MEFs from Trex1 KO mice; assay type: cell-based, mouse; conditions: 2 µM overnight
mmSTING-V154M = target: T1, mmSTING-V154M (Mus musculus, UniProt Q3TBT3, V154M); test: IFN-beta luciferase reporter in HEK293T cells transfected with gain-of-function STING mutant; assay type: cell-based; conditions: 1.25 µM - 0.009 µM, 16 h
T1 construct: expressed in transfected cells; host or cells: HEK293T
T1 sequence (Q3TBT3 1-378 V154M): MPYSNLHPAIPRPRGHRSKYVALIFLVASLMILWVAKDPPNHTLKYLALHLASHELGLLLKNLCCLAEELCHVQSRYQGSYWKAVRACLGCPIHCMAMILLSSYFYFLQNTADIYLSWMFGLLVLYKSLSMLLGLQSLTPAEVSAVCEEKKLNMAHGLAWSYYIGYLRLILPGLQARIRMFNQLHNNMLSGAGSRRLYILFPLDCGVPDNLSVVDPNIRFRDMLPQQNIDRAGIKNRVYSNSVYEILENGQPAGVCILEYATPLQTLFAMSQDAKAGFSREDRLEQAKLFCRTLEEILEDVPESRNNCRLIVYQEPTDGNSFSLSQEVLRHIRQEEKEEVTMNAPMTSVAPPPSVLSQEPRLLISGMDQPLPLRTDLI

STING = target: T2, STING (Mus musculus, UniProt Q3TBT3); test: Flag immunoprecipitation, recruitment of TBK1 to STING; assay type: cell-based; set-up: expressed in transfected cells; host or cells: HEK293T; conditions: HEK293T expressing Flag-STING; 1 µM; CMA 2 h
T2 sequence (Q3TBT3 1-378): T1 sequence (Q3TBT3 1-378 V154M) with M154V

mmSTING = test: Gel-based analysis of C-176-22 labelling (click chemistry, in-gel fluorescence) in HEK293T cells; assay type: binding, mouse; conditions: whole cell lysate; C-176-22 0.25µM
Description: Reporter activity was measured 16 h after compound treatment. A nonlinear regression analysis was performed. […] Cytokine levels were normalized to DMSO-treated control cells. […] Nuclei were stained with DAPI. […] Depicted genes were measured by RT-qPCR. […] 16 h later Luciferase activity was measured. […] Flag-STING was immunoprecipitated and analysed by autoradiography.
HEK293T cells expressing Flag-STING were incubated with C-176-22 (0.25 µM) in serum free media, collected in PBSs and lysed by repetitive freezing and thawing. […] In-gel fluorescence was visualized using Fusion FX (Vilber Lourmat) and analysed by Fusion capt advance acquisition software.
We next sought to elucidate the molecular details of the interaction between C-178 and the TM part of STING. […] Having verified that C-176-22 is still active (Fig. 7), HEK293T cells expressing STING were exposed to C-176-22, lysed, coupled to a tetramethylrhodamine (TAMRA-)azide tag and C-176-22-modified proteins were visualized using in-gel fluorescence scanning. […]

[1] = target: T3, mmSTING(AA1-137)-hsSTING(AA139-379) (Mus musculus, UniProt Q3TBT3, A274S/A344S/A350V/D273Y/D368E/E149K/E296D/E299A/F181Y/F201L/G173E/G193V/G319D/H185Y/I229G/I246L/I257V/I332L/K150G/K151N/K275Q/L152F/L184H/L356M/M180T/M188L/M223K/M342V/M346K/N228T/N236D/N320S/N343G/P252R/P345L/P352S/P353T/Q369K/R195Q/R221L/R231H/R305Q/R361E/S190R/T139A/T317A/V143I/V213M/V214A/V243I/V255T/V301A/V312A/V349A/V355T); test: IFN reporter in HEK293T cells, chimeric construct 2; assay type: cell-based; conditions: N-terminal part of mouse STING fused to C-terminal part of human STING; 0.5 µm
T3 construct: mmSTING(AA1-137)-hsSTING(AA139-379); expressed in transfected cells; host or cells: HEK293T

THP-1 cells = test: IFNB1 mRNA (RT-qPCR) in THP-1 cells stimulated with cGAMP; assay type: cell-based, human; conditions: even at high concentrations
TBK1 = test: Immunoblot of phospho-TBK1 in BMDMs; assay type: cell-based, mouse

O=C(Nc1ccc2c(c1)oc1ccccc12)c1ccc([N+](=O)[O-])o1 [C-178, N-dibenzo[b,d]furan-3-yl-5-nitro-2-furamide]
ISGs levels (ISG15, USP18, IP10) (MEFs from TREX1 KO mice): markedly reduced
responsiveness of cells to mutant STING (STINGV154M) (mmSTING-V154M): blocked
recruitment of TBK1 (STING): impaired
labelling of other protein targets / proteome-wide selectivity (mmSTING): high proteome-wide selectivity
IFN reporter activity of chimeric construct [1]: blocked
cGAMP response (THP-1 cells): did not substantially alter
activation of TBK1 (TBK1; by triphosphate RNA or LPS): not affecting
phosphorylation of TBK1 (TBK1; induced by CMA): dose-dependently inhibited
